{"source": "PubChem BioAssay AID504784 (Drosophila RNAi Screening Center, 2011)", "aim": "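Search for regulators of lipid droplet storage in oleate-fed fly cells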 (primary screen)", "system": "Drosophila Kc167 embryonic cells", "knock-down reagent": "long dsRNA against Drosophila genes, about 250 ng dsRNA per well", "time to read-out": "4 days", "treatment": "cells fed 400 µM oleic acid bound to BSA", "read-out": "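Cells imaged and segmented; ratio of lipid droplet area to nuclear area, log-transformed, then normalised as a B-score over the screen; higher means more stored lipid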", "reading the numbers": "droplet/nuclear area B-score: higher = more stored lipid (overstorage)", "note": "In all, the deposit lists about 17,000 reagents; below is an unselected part of those with a known target gene and a result. 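Each column is one replicate's B-score; the combined score over replicates was not deposited, so single values may mislead.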 A plus sign joins genes that one reagent is predicted to hit. Further read-outs or replicates are left out here. No sequences are given here."}
The first 2 entries, to show the layout:
{"gene knocked down": "CG13606", "DRSC id": "DRSC14609", "droplet/nuclear area B-score, replicate 1": 1.17}
{"gene knocked down": "CG6340", "DRSC id": "DRSC19987", "droplet/nuclear area B-score, replicate 1": -2.19}

Main list, from the start:
{"gene knocked down": "CG13606", "DRSC id": "DRSC14609", "droplet/nuclear area B-score, replicate 1": 1.17}
{"gene knocked down": "CG6340", "DRSC id": "DRSC19987", "droplet/nuclear area B-score, replicate 1": -2.19}
{"gene knocked down": "PIG-N (Phosphatidylinositol glycan anchor biosynthesis class N)", "DRSC id": "DRSC06837", "droplet/nuclear area B-score, replicate 1": 0.71}
{"gene knocked down": "CtBP (C-terminal Binding Protein)", "DRSC id": "DRSC16617", "droplet/nuclear area B-score, replicate 1": 0.54}
{"gene knocked down": "Cog3 (Component of oligomeric golgi complex 3)", "DRSC id": "DRSC00585", "droplet/nuclear area B-score, replicate 1": -0.00863}
{"gene knocked down": "pb (proboscipedia)", "DRSC id": "DRSC12409", "droplet/nuclear area B-score, replicate 1": -1.61}
{"gene knocked down": "pb (proboscipedia)", "DRSC id": "DRSC12629", "droplet/nuclear area B-score, replicate 1": 0.0535}
{"gene knocked down": "Ugt316A1 (UDP-glycosyltransferase family 316 member A1)", "DRSC id": "DRSC10376", "droplet/nuclear area B-score, replicate 1": 0.669}
{"gene knocked down": "mei-S332 (meiotic from via Salaria 332)", "DRSC id": "DRSC04704", "droplet/nuclear area B-score, replicate 1": 0.31}
{"gene knocked down": "Rpt1 (Regulatory particle triple-A ATPase 1)", "DRSC id": "DRSC07542", "droplet/nuclear area B-score, replicate 1": 1.06}
{"gene knocked down": "nAChRalpha4 (nicotinic Acetylcholine Receptor alpha4)", "DRSC id": "DRSC11925", "droplet/nuclear area B-score, replicate 1": 1.85}
{"gene knocked down": "Cpr65Av (Cuticular protein 65Av)", "DRSC id": "DRSC09727", "droplet/nuclear area B-score, replicate 1": 0.261}
{"gene knocked down": "ALiX (ALG-2 interacting protein X)", "DRSC id": "DRSC14564", "droplet/nuclear area B-score, replicate 1": 0.534}
{"gene knocked down": "Erasp (Endoplasmic reticulum stress-associated serine protease)", "DRSC id": "DRSC07111", "droplet/nuclear area B-score, replicate 1": 1.12}
{"gene knocked down": "Muc12Ea (Mucin 12Ea)", "DRSC id": "DRSC19937", "droplet/nuclear area B-score, replicate 1": -1.5}
{"gene knocked down": "antr (antares)", "DRSC id": "DRSC22392", "droplet/nuclear area B-score, replicate 1": -0.896}
{"gene knocked down": "EMC2B (ER membrane protein complex subunit 2B)", "DRSC id": "DRSC15506", "droplet/nuclear area B-score, replicate 1": 2.39}
{"gene knocked down": "CG6329", "DRSC id": "DRSC06976", "droplet/nuclear area B-score, replicate 1": -0.435}
{"gene knocked down": "CG6153", "DRSC id": "DRSC02935", "droplet/nuclear area B-score, replicate 1": 0.519}
{"gene knocked down": "Pka-C1 (Protein kinase, cAMP-dependent, catalytic subunit 1)", "DRSC id": "DRSC03399", "droplet/nuclear area B-score, replicate 1": 1.54}
{"gene knocked down": "Pka-C1 (Protein kinase, cAMP-dependent, catalytic subunit 1)", "DRSC id": "DRSC23314", "droplet/nuclear area B-score, replicate 1": 0.643}
{"gene knocked down": "CG7054", "DRSC id": "DRSC16185", "droplet/nuclear area B-score, replicate 1": 0.33}
{"gene knocked down": "CG8141", "DRSC id": "DRSC16387", "droplet/nuclear area B-score, replicate 1": 0.419}
{"gene knocked down": "Caf1-105 (Chromatin assembly factor 1, p105 subunit)", "DRSC id": "DRSC06209", "droplet/nuclear area B-score, replicate 1": 1.44}
{"gene knocked down": "CG12912", "DRSC id": "DRSC06227", "droplet/nuclear area B-score, replicate 1": -0.0676}
{"gene knocked down": "snoRNA:Me28S-C3420b + RpS11", "DRSC id": "DRSC07396", "droplet/nuclear area B-score, replicate 1": 1.34}
{"gene knocked down": "tral (trailer hitch)", "DRSC id": "DRSC09779", "droplet/nuclear area B-score, replicate 1": 2.18}
